In US12486495B2, “Cardiac organoid, manufacturing method therefor, and method for evaluating drug toxicity by using same” (priority 2020, dated 2025):

Tested on: cardiac organoid

COC(=O)C1=C(C)NC(C)=C(C(=O)OC)C1c1ccccc1[N+](=O)[O-] [nifedipine]
pattern of contraction and relaxation (after 10 μM treatment, FIG. 13D): sporadic contraction and relaxation
beat rate variation after treatment (comparison of three treatment amount groups, FIG. 13B/13C): highest in a 10 μM treatment group and lowest in a 100 nM treatment group
treatment amount at which side effects in the heart in vivo may be caused (inferred from beat rate variation of the cardiac organoid): ≥ 10 µM
